Experimental data taken from article PMC11426250.
No constants are given. Whether binding was seen depends on the method and setting. Binding seen in cells or lysates may run through a third protein. Some entries that bind do so weakly or less than the wild type. One block for each binder: values may come before it.

Chains of the proteins cited; added tags and fusions are not shown.
UniProt Q9UH17: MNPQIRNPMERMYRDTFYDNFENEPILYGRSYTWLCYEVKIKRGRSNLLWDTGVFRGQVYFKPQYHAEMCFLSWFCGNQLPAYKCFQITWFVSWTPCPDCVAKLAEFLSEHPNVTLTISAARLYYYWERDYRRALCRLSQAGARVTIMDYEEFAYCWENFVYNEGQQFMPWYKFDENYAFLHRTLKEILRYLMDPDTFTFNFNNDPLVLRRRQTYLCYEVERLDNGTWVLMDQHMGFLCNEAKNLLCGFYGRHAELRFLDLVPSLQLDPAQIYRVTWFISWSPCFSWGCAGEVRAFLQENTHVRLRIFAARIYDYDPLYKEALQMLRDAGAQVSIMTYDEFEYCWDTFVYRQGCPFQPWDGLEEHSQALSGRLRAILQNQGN

Key:
[1] = target: APOBEC3B (exogenous, transfected) (UniProt Q9UH17); assay: co-IP; HEK293T cells transfected with DTX4 and APOBEC3B; which protein was precipitated is not told
[2] = target: APOBEC3B (endogenous) (human (endogenous in HepG2 and HepG2.2.15)) (UniProt Q9UH17); assay: co-IP; endogenous proteins in HepG2 and HepG2.2.15 cells; which protein was precipitated is not told

- binding [1]: binds
B1: DTX4 (exogenous, transfected) (enzyme, UniProt Q9Y2E6 1-619)
chain: MLLASAVVVWEWLNEHGRWRPYSPAVSHHIEAVVRAGPRAGGSVVLGQVDSRLAPYIIDLQSMNQFRQDTGTLRPVRRNYYDPSSAPGKGVVWEWENDNGSWTPYDMEVGITIQHAYEKQHPWIDLTSIGFSYVIDFNTMGQINRQTQRQRRVRRRLDLIYPMVTGTLPKAQSWPVSPGPATSPPMSPCSCPQCVLVMSVKAAVVNGSTGPLQLPVTRKNMPPPGVVKLPPLPGSGAKPLDSTGTIRGPLKTAPSQVIRRQASSMPTGTTMGSPASPPGPNSKTGRVALATLNRTNLQRLAIAQSRVLIASGVPTVPVKNLNGSSPVNPALAGITGILMSAAGLPVCLTRPPKLVLHPPPVSKSEIKSIPGVSNTSRKTTKKQAKKGKTPEEVLKKYLQKVRHPPDEDCTICMERLTAPSGYKGPQPTVKPDLVGKLSRCGHVYHIYCLVAMYNNGNKDGSLQCPTCKTIYGVKTGTQPPGKMEYHLIPHSLPGHPDCKTIRIIYSIPPGIQGPEHPNPGKSFSARGFPRHCYLPDSEKGRKVLKLLLVAWDRRLIFAIGTSSTTGESDTVIWNEVHHKTEFGSNLTGHGYPDANYLDNVLAELAAQGISEDSTAQEKD

- binding [2]: binds
B2: DTX4 (endogenous) (enzyme, UniProt Q9Y2E6 1-619)
chain: B1 chain
